PubChem BioAssay AID1508597 – Cure First, 2020
Assay: 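Knock-downs altering ovarian cancer cell survival with or without PARP inhibitor rucaparib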 (primary screen). Cells: human ovarian carcinoma lines grown from tumours: OCI-P5x (papillary serous) and OCI-C5x (clear cell). Reagents: siRNA pool against human genes, 1.25 pmol siRNA per well. Duration: 72 h or 96 h, depending on the cell culture. Challenge: rucaparib 20 µM (about IC30) or vehicle, present until read-out. Detection: 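ATP luminescence measured at 72 or 96 h according to the culture, then normalised and expressed as percent viability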. Scale: viability, normalised: higher = more viable cells remaining. Rule for the call: 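Active when normalised viability falls below 80 percent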. Calls: active = viability under 80%; inactive = viability 80% or more.
The deposit covers about 2,100 reagents; this is a random part of them. 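Calls flag viability under 80% in either arm, not effects specific to rucaparib; the reference for percent is not stated.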 Reagent sequences are not shown. Not stated in the record: the 100% reference.

{"gene": "GNRHR", "rucaparib or vehicle": "Rucaparib", "cell line": "OCI-C5x (clear cell)", "technical replicate": "1", "viability, normalised (%)": 42.5, "Call": "active"}
{"gene": "GNRHR", "rucaparib or vehicle": "Rucaparib", "cell line": "OCI-C5x (clear cell)", "technical replicate": "2", "viability, normalised (%)": 34.6, "Call": "active"}
{"gene": "GNRHR", "rucaparib or vehicle": "Rucaparib", "cell line": "OCI-C5x (clear cell)", "technical replicate": "3", "viability, normalised (%)": 37.6, "Call": "active"}
{"gene": "GNRHR", "rucaparib or vehicle": "Rucaparib", "cell line": "OCI-P5x (serous)", "technical replicate": "1", "viability, normalised (%)": 68.1, "Call": "active"}
{"gene": "GNRHR", "rucaparib or vehicle": "Rucaparib", "cell line": "OCI-P5x (serous)", "technical replicate": "2", "viability, normalised (%)": 80.7, "Call": "inactive"}
{"gene": "GNRHR", "rucaparib or vehicle": "Rucaparib", "cell line": "OCI-P5x (serous)", "technical replicate": "3", "viability, normalised (%)": 67.1, "Call": "active"}
{"gene": "GNRHR", "rucaparib or vehicle": "Vehicle", "cell line": "OCI-C5x (clear cell)", "technical replicate": "1", "viability, normalised (%)": 52.6, "Call": "active"}
{"gene": "GNRHR", "rucaparib or vehicle": "Vehicle", "cell line": "OCI-C5x (clear cell)", "technical replicate": "2", "viability, normalised (%)": 42.7, "Call": "active"}
{"gene": "GNRHR", "rucaparib or vehicle": "Vehicle", "cell line": "OCI-C5x (clear cell)", "technical replicate": "3", "viability, normalised (%)": 53.1, "Call": "active"}
{"gene": "GNRHR", "rucaparib or vehicle": "Vehicle", "cell line": "OCI-P5x (serous)", "technical replicate": "1", "viability, normalised (%)": 65, "Call": "active"}
{"gene": "GNRHR", "rucaparib or vehicle": "Vehicle", "cell line": "OCI-P5x (serous)", "technical replicate": "2", "viability, normalised (%)": 69.3, "Call": "active"}
{"gene": "GNRHR", "rucaparib or vehicle": "Vehicle", "cell line": "OCI-P5x (serous)", "technical replicate": "3", "viability, normalised (%)": 86.1, "Call": "inactive"}
{"gene": "RAD1", "rucaparib or vehicle": "Rucaparib", "cell line": "OCI-C5x (clear cell)", "technical replicate": "1", "viability, normalised (%)": 36.8, "Call": "active"}
{"gene": "RAD1", "rucaparib or vehicle": "Rucaparib", "cell line": "OCI-C5x (clear cell)", "technical replicate": "2", "viability, normalised (%)": 57.4, "Call": "active"}
{"gene": "RAD1", "rucaparib or vehicle": "Rucaparib", "cell line": "OCI-C5x (clear cell)", "technical replicate": "3", "viability, normalised (%)": 51.8, "Call": "active"}
{"gene": "RAD1", "rucaparib or vehicle": "Rucaparib", "cell line": "OCI-P5x (serous)", "technical replicate": "1", "viability, normalised (%)": 65.2, "Call": "active"}
{"gene": "RAD1", "rucaparib or vehicle": "Rucaparib", "cell line": "OCI-P5x (serous)", "technical replicate": "2", "viability, normalised (%)": 56.4, "Call": "active"}
{"gene": "RAD1", "rucaparib or vehicle": "Rucaparib", "cell line": "OCI-P5x (serous)", "technical replicate": "3", "viability, normalised (%)": 56.5, "Call": "active"}
{"gene": "RAD1", "rucaparib or vehicle": "Vehicle", "cell line": "OCI-C5x (clear cell)", "technical replicate": "1", "viability, normalised (%)": 61.8, "Call": "active"}
{"gene": "RAD1", "rucaparib or vehicle": "Vehicle", "cell line": "OCI-C5x (clear cell)", "technical replicate": "2", "viability, normalised (%)": 47.9, "Call": "active"}
{"gene": "RAD1", "rucaparib or vehicle": "Vehicle", "cell line": "OCI-C5x (clear cell)", "technical replicate": "3", "viability, normalised (%)": 48.9, "Call": "active"}
{"gene": "RAD1", "rucaparib or vehicle": "Vehicle", "cell line": "OCI-P5x (serous)", "technical replicate": "1", "viability, normalised (%)": 60, "Call": "active"}
{"gene": "RAD1", "rucaparib or vehicle": "Vehicle", "cell line": "OCI-P5x (serous)", "technical replicate": "2", "viability, normalised (%)": 63.9, "Call": "active"}
{"gene": "RAD1", "rucaparib or vehicle": "Vehicle", "cell line": "OCI-P5x (serous)", "technical replicate": "3", "viability, normalised (%)": 56.8, "Call": "active"}
{"gene": "HK2", "rucaparib or vehicle": "Rucaparib", "cell line": "OCI-C5x (clear cell)", "technical replicate": "1", "viability, normalised (%)": 50.8, "Call": "active"}
{"gene": "HK2", "rucaparib or vehicle": "Rucaparib", "cell line": "OCI-C5x (clear cell)", "technical replicate": "2", "viability, normalised (%)": 49.6, "Call": "active"}
{"gene": "HK2", "rucaparib or vehicle": "Rucaparib", "cell line": "OCI-C5x (clear cell)", "technical replicate": "3", "viability, normalised (%)": 50.1, "Call": "active"}
{"gene": "HK2", "rucaparib or vehicle": "Rucaparib", "cell line": "OCI-P5x (serous)", "technical replicate": "1", "viability, normalised (%)": 67.5, "Call": "active"}
{"gene": "HK2", "rucaparib or vehicle": "Rucaparib", "cell line": "OCI-P5x (serous)", "technical replicate": "2", "viability, normalised (%)": 53.5, "Call": "active"}
{"gene": "HK2", "rucaparib or vehicle": "Rucaparib", "cell line": "OCI-P5x (serous)", "technical replicate": "3", "viability, normalised (%)": 58.6, "Call": "active"}
{"gene": "HK2", "rucaparib or vehicle": "Vehicle", "cell line": "OCI-C5x (clear cell)", "technical replicate": "1", "viability, normalised (%)": 52.8, "Call": "active"}
{"gene": "HK2", "rucaparib or vehicle": "Vehicle", "cell line": "OCI-C5x (clear cell)", "technical replicate": "2", "viability, normalised (%)": 52.1, "Call": "active"}
{"gene": "HK2", "rucaparib or vehicle": "Vehicle", "cell line": "OCI-C5x (clear cell)", "technical replicate": "3", "viability, normalised (%)": 53.6, "Call": "active"}
{"gene": "HK2", "rucaparib or vehicle": "Vehicle", "cell line": "OCI-P5x (serous)", "technical replicate": "1", "viability, normalised (%)": 63.2, "Call": "active"}
{"gene": "HK2", "rucaparib or vehicle": "Vehicle", "cell line": "OCI-P5x (serous)", "technical replicate": "2", "viability, normalised (%)": 65.3, "Call": "active"}
{"gene": "HK2", "rucaparib or vehicle": "Vehicle", "cell line": "OCI-P5x (serous)", "technical replicate": "3", "viability, normalised (%)": 67.4, "Call": "active"}

Part of the list above, reformatted:
gene,rucaparib or vehicle,cell line,technical replicate,"viability, normalised (%)",Call
GNRHR,Vehicle,OCI-C5x (clear cell),1,52.6,active
GNRHR,Vehicle,OCI-C5x (clear cell),2,42.7,active
GNRHR,Vehicle,OCI-C5x (clear cell),3,53.1,active
GNRHR,Vehicle,OCI-P5x (serous),1,65,active
